According to article PMC6900553 (Acta Pharmaceutica Sinica. B, 2019):

Assay: Caco-2 cell permeability assay
Details: human

Papp A→B at 90 min, 10 μmol/L: 0.66 ± 0.01 ×10⁻⁶ cm/s | Papp B→A at 90 min, 10 μmol/L: 1.53 ± 0.01 ×10⁻⁶ cm/s | efflux ratio at 90 min, 10 μmol/L: 2.31
SMILES: CC(C)NCC(O)COc1ccc(CC(N)=O)cc1 (stereo not drawn) [Atenolol]
